These are yes or no findings as the source states them, for the method shown. Binding seen in cells or lysates may run through a third protein. Binding can be weak; no strength is given. Where a sequence is shown, tags or fusion partners need not be part of it.
Molecular target: GST-Dullard protein harbouring the D69E mutation in the catalytic domain
Assay: pull-down; GST-Dullard recombinant protein as bait; Myc-tagged Dvls from transfected HEK293 cells, detected by an anti-Myc antibody; two independent experiments

B1: Myc-tagged Dvl2 (protein, UniProt Q60838 1-736)
chain: MAGSSAGGGGVGETKVIYHLDEEETPYLVKIPVPAERITLGDFKSVLQRPAGAKYFFKSMDQDFGVVKEEISDDNARLPCFNGRVVSWLVSSDTPQPEVAPPAHESRTELVPPPPPLPPLPPERTSGIGDSRPPSFHPNVSSSHENLEPETETESVVSLRRDRPRRRDSSEHGAGGHRPGGPSRLERHLAGYESSSTLMTSELESTSLGDSDEDDTMSRFSSSTEQSSASRLLKRHRRRRKQRPPRMERTSSFSSVTDSTMSLNIITVTLNMEKYNFLGISIVGQSNERGDGGIYIGSIMKGGAVAADGRIEPGDMLLQVNDMNFENMSNDDAVRVLRDIVHKPGPIVLTVAKCWDPSPQAYFTLPRNEPIQPIDPAAWVSHSAALTGAFPAYPGSSSMSTITSGSSLPDGCEGRGLSVHMDMASVTKAMAAPESGLEVRDRMWLKITIPNAFLGSDVVDWLYHHVEGFPERREARKYASGLLKAGLIRHTVNKITFSEQCYYVFGDLSGGCESYLVNLSLNDNDGSSGASDQDTLAPLPGATPWPLLPTFSYQYPAPHPYSPQPPPYHELSSYTYGGGSASSQHSEGSRSSGSTRSDGGAGRTGRPEERAPESKSGSGSESELSSRGGSLRRGGEPGGTGDGGPPPSRGSTGAPPNLRALPGLHPYGAPSGMALPYNPMMVVMMPPPPPPVSTAVQPPGAPPVRDLGSVPPELTASRQSFHMAMGNPSEFFVDVM
With B1 the binding was “binds”.
